Measured values as given in paper PMC6984821.
Results are given in words; binding and its absence hold for the method and conditions named. Binding seen in cells or lysates may run through a third protein. Binding can be weak; no strength is given.

Molecular target: JCPyV-CY Small T antigen, C-terminal Flag-HA (CTAP) tagged (JC polyomavirus (JCPyV-CY))
Experiment: co-IP; HA-tag immunoprecipitation from lysates of HCT116 cells expressing CTAP (C-terminal Flag-HA) tagged STs; endogenous partners detected by immunoblot

B1: STRN3, endogenous (protein, UniProt Q13033 1-797)
chain: MDELAGGGGGGPGMAAPPRQQQGPGGNLGLSPGGNGAAGGGGPPASEGAGPAAGPELSRPQQYTIPGILHYIQHEWARFEMERAHWEVERAELQARIAFLQGERKGQENLKKDLVRRIKMLEYALKQERAKYHKLKYGTELNQGDLKMPTFESEETKDTEAPTAPQNSQLTWKQGRQLLRQYLQEVGYTDTILDVRSQRVRSLLGLSNSEPNGSVETKNLEQILNGGESPKQKGQEIKRSSGDVLETFNFLENADDSDEDEENDMIEGIPEGKDKHRMNKHKIGNEGLAADLTDDPDTEEALKEFDFLVTAEDGEGAGEARSSGDGTEWDKDDLSPTAEVWDVDQGLISKLKEQYKKERKGKKGVKRANRTKLYDMIADLGDDELPHIPSGIINQSRSASTRMTDHEGARAEEAEPITFPSGGGKSFIMGSDDVLLSVLGLGDLADLTVTNDADYSYDLPANKDAFRKTWNPKYTLRSHFDGVRALAFHPVEPVLVTASEDHTLKLWNLQKTVPAKKSASLDVEPIYTFRAHIGPVLSLAISSNGEQCFSGGIDATIQWWNMPSPSVDPYDTYEPNVLAGTLVGHTDAVWGLAYSGIKNQLLSCSADGTVRLWNPQEKLPCICTYNGDKKHGIPTSVDFIGCDPAHMVTSFNTGSAVIYDLETSQSLVILSSQVDSGLQSNNHINRVVSHPTLPVTITAHEDRHIKFFDNKTGKMIHSMVAHLDAVTSLAVDPNGIYLMSGSHDCSIRLWNLDSKTCVQEITAHRKKLDESIYDVAFHSSKAYIASAGADALAKVFV
With B1 the binding was “binds”.
